# Results deposited as PubChem BioAssay AID1224830 (NIAID, 2016)
# Screen: 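Genes whose knock-down alters the TNF-alpha reporter response to LPS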 (primary screen)
# System: human THP-1 monocytic leukaemia cells, TNF dual-luciferase reporter clone, PMA-differentiated to macrophage-like cells
# Reagent: siRNA pool against human genes, 50 nM
# Duration: LPS for 4 h, given about 3 days after siRNA transfection
# Challenge: bacterial LPS (TLR4 ligand), 10 ng/ml
# Read-out: 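Ratio of firefly to renilla light, scaled to the plate median and expressed as a robust z-score per replicate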
# Reading the numbers: TNF reporter robust z-score: higher = stronger TNF reporter response to LPS
# Rule for the call: 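a well is active when its z-score exceeds 2.8 or falls below -1.5; control wells carry no call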
# Here is a random part of about 18,000 deposited reagents. In the full data, about 2,900 (16%) are marked active. 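Calls are made per well; low scores hint the gene aids the LPS response, high scores that it dampens it.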 Entries without a mark were called inactive. The numbers tell different reagents against one gene apart. Repeated entries: four replicate wells of each siRNA pool. No sequences are given here.
TNF reporter robust z-score,Gene,reagent no.
0.19,SPANXD (GeneID 64648),1
0.79,SPANXD (GeneID 64648),1
-1.05,SPANXD (GeneID 64648),1
-0.78,SPANXD (GeneID 64648),1
0.29,SPANXD (GeneID 64648),2
0.7,SPANXD (GeneID 64648),2
0.52,SPANXD (GeneID 64648),2
1.09,SPANXD (GeneID 64648),2
-0.9,GTF2H4 (GeneID 2968),1
0.03,GTF2H4 (GeneID 2968),1
-0.55,GTF2H4 (GeneID 2968),1
-0.32,GTF2H4 (GeneID 2968),1
-0.46,LILRA4 (GeneID 23547),1
-0.5,LILRA4 (GeneID 23547),1
-1.05,LILRA4 (GeneID 23547),1
0.77,LILRA4 (GeneID 23547),1
0.78,ENDOU (GeneID 8909),1
-0.26,ENDOU (GeneID 8909),1
0.59,ENDOU (GeneID 8909),1
-0.79,ENDOU (GeneID 8909),1

Continued (2 carried over from the part before).
TNF reporter robust z-score,Gene,reagent no.
0.59,ENDOU (GeneID 8909),1
-0.79,ENDOU (GeneID 8909),1
-0.17,TRPV6 (GeneID 55503),1
0.07,TRPV6 (GeneID 55503),1
-0.48,TRPV6 (GeneID 55503),1
0.22,TRPV6 (GeneID 55503),1
-0.28,IL17RA (GeneID 23765),1
0.63,IL17RA (GeneID 23765),1
0.23,IL17RA (GeneID 23765),1
0.84,IL17RA (GeneID 23765),1
0.87,TOGARAM2 (GeneID 165186),1
1.1,TOGARAM2 (GeneID 165186),1
2.33,TOGARAM2 (GeneID 165186),1
2.05,TOGARAM2 (GeneID 165186),1
-0.21,TSC2 (GeneID 7249),1
0.26,TSC2 (GeneID 7249),1
2.15,TSC2 (GeneID 7249),1
-0.62,TSC2 (GeneID 7249),1
0.43,ST3GAL3 (GeneID 6487),1
0.41,ST3GAL3 (GeneID 6487),1
0.14,ST3GAL3 (GeneID 6487),1
0.88,ST3GAL3 (GeneID 6487),1
1.54,CNGA3 (GeneID 1261),1
1.36,CNGA3 (GeneID 1261),1
0.67,CNGA3 (GeneID 1261),1
1.02,CNGA3 (GeneID 1261),1
-0.22,KIAA0825 (GeneID 285600),1
1.33,KIAA0825 (GeneID 285600),1
0.07,KIAA0825 (GeneID 285600),1
0.22,KIAA0825 (GeneID 285600),1
